{"source": "patent US7183100B2", "about": "“Aconitase” (priority 2003, dated 2007)", "format_in_all_cases": "cell-based, P. aeruginosa", "key": {"FRD1": {"test_system": "FRD1", "experiment": "Reversal of propionate growth inhibition by TCA intermediates in M9 minimal media", "conditions": "0.4% propionate", "method": "This effect was tested by supplementing M9 minimal media with various TCA cycle components in the presence of 0.4% propionate."}, "[1]": {"test_system": "acnC disrupted strain (PA01*)", "experiment": "Growth on various carbon sources", "conditions": "substance used as carbon source", "from_the_text": "When tested for growth on various carbon sources, no difference was observed when glucose, glutamate, citrate, isocitrate, succinate, acetate, pyruvate, butyrate, hexonate, or glyoxalate was used as a carbon source."}, "PA01 Disrupted acaA": {"test_system": "PA01 Disrupted acaA", "experiment": "Growth in M9 medium with added fatty acid", "conditions": "0.4% of the acid"}, "PA01* (Disrupted acnC)": {"test_system": "PA01* (Disrupted acnC)", "experiment": "Growth in M9 medium with added fatty acid", "conditions": "0.4% of the acid"}, "PA01 wt": {"test_system": "PA01 wt", "experiment": "Growth in M9 medium with added fatty acid", "conditions": "0.4% of the acid"}, "PA01 Disrupted IcdI": {"test_system": "PA01 Disrupted IcdI", "experiment": "Growth in M9 medium with added fatty acid", "conditions": "0.4% of the acid"}}, "note": "For at least one compound, name, drawing or mass did not settle the structure. Some compounds share one wording; it may come from a single statement.", "data": [{"smiles": "N[C@@H](CC(=O)O)C(=O)O", "note": "[aspartate]", "values": [{"measurement": "reversal of negative effects of propionate on growth", "setting": "FRD1", "result": "successful"}]}, {"smiles": "CC(=O)C(=O)O", "note": "[pyruvate]", "values": [{"measurement": "difference in growth between wildtype and acnC disrupted strain", "setting": "[1]", "result": "no difference"}]}, {"smiles": "CCCC(=O)O", "note": "[butyrate]", "values": [{"measurement": "difference in growth between wildtype and acnC disrupted strain", "setting": "[1]", "result": "no difference"}, {"measurement": "growth, Disrupted acaA", "setting": "PA01 Disrupted acaA", "result": "+/poor"}, {"measurement": "growth, PA01* (Disrupted acnC)", "setting": "PA01* (Disrupted acnC)", "result": "+/poor"}, {"measurement": "growth, PA01 wt", "setting": "PA01 wt", "result": "+/poor"}, {"measurement": "growth, Disrupted IcdI", "setting": "PA01 Disrupted IcdI", "result": "+/poor"}]}, {"smiles": "O=C(O)CC(C(=O)O)C(O)C(=O)O", "note": "(centres unmarked) [isocitrate]", "values": [{"measurement": "difference in growth between wildtype and acnC disrupted strain", "setting": "[1]", "result": "no difference"}]}]}
